From PMC7819943, “Rice protein-binding microarrays: a tool to detect cis-acting elements near promoter regions in rice”
The list shows a part of the results.

target: T1, OsSMF1 (Oryza sativa, UniProt Q6ZLB0 1-436); test: protein-binding microarray (RPBM); PBS, 2% BSA, 51.3 ng/ul salmon testes DNA, 50 uM zinc acetate, 200 nM TF, 25 C, 1 h; high values mean tight binding; settings: protein: recombinant; tags: N-terminal polyhistidine and DsRed monomer fusion (pET32a); chain copies: 2; label: CyDye5-dUTP incorporated in the synthesized complementary strand; 3' TTTTT single-stranded linker to array surface; dsDNA, one strand shown
T1 sequence: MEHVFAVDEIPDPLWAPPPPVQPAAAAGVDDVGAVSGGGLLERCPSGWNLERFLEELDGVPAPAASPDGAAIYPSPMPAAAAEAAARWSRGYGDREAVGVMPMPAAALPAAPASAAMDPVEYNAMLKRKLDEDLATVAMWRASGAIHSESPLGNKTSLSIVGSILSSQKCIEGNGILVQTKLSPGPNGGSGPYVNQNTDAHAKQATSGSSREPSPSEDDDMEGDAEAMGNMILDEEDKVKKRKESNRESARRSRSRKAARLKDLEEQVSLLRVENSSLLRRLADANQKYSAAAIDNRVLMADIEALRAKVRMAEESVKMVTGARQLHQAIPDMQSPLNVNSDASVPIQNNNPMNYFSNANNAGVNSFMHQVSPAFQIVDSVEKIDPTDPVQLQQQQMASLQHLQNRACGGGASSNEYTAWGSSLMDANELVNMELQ
Summary of the method: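 An Axon 4000B scanner gave the binding signal as per-feature fluorescence intensity in arbitrary units. This followed washing of a custom Agilent array that had been incubated for 1 h at 25 °C with 200 nM protein in PBS, 2% BSA, salmon testes DNA and 50 µM zinc acetate. The proteins were transcription factors fused at the N-terminus to polyhistidine and DsRed, expressed in E. coli BL21-CodonPlus and purified on Ni–NTA.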

Sequence	binding signal
AGACGTGAGATGTAAGCAAGGAGCACACACACACACACACCGGAGTCACCTAGTGCAG	3270 fluorescence intensity (a.u.)
AGGTGAATTTTCCAACATGACCAACATTTTGAACTTGGATCGGAGTCACCTAGTGCAG	3350 fluorescence intensity (a.u.)
CAACATGCACGTACTACGTGTGCTTGCATTGCATGCATGCCGGAGTCACCTAGTGCAG	4450 fluorescence intensity (a.u.)
GCACTCGCCTCCTTCCTCCACCTCCACCACGCCCCACTCCCGGAGTCACCTAGTGCAG	11500 fluorescence intensity (a.u.)
ATCGATCAGGCAATGAACCCATTATTGTTTGCCTCCAAAACGGAGTCACCTAGTGCAG	34100 fluorescence intensity (a.u.)
CTGGTGACCTGTCGATCGAGTCCGCTGTTCTTGGTCAATCCGGAGTCACCTAGTGCAG	3290 fluorescence intensity (a.u.)
AACTGTATGTTATCTCTGATGATCTTACACATGGCACAGGCGGAGTCACCTAGTGCAG	3400 fluorescence intensity (a.u.)
CGTGCAAGGGCAACTTGACGTGCCTTGCATATCATTACAGCGGAGTCACCTAGTGCAG	4100 fluorescence intensity (a.u.)
AAACATCCATAGAACGTGTAACATATGGTATCACGTGCCACGGAGTCACCTAGTGCAG	4080 fluorescence intensity (a.u.)
GTCCCGCGCATTGGCGACGCGCGACCGGCACGGTCCCGCACGGAGTCACCTAGTGCAG	13500 fluorescence intensity (a.u.)
TCACGTGTGCTTGAAATGGGCCTGAGTTGGGTTGGATATGCGGAGTCACCTAGTGCAG	3660 fluorescence intensity (a.u.)
TGCCCAATTTGATGTGAACCCTAGCTTACTTGGTCACATGCGGAGTCACCTAGTGCAG	3250 fluorescence intensity (a.u.)
AGAGAAGTTAGGATTGAGTCATCTCTTTACTTTCCTGACTCGGAGTCACCTAGTGCAG	4710 fluorescence intensity (a.u.)
GATCATCGTGTGGGTGCGGTGACGGAACGGTGACGTAAATCGGAGTCACCTAGTGCAG	3300 fluorescence intensity (a.u.)
CACTCACCCCTATGAATGCGTGCACGCAAACCCTACCCCTCGGAGTCACCTAGTGCAG	3650 fluorescence intensity (a.u.)
TTCACGCCCTGTAACATCGTGTGCATCCATCCCTCCACCGCGGAGTCACCTAGTGCAG	4190 fluorescence intensity (a.u.)
CCAGACCCTTCCAGAACTCCCATCCGATCTCAATCCAACGCGGAGTCACCTAGTGCAG	3240 fluorescence intensity (a.u.)
TGGCGCCGTTCCCCTGCCACCGTGGTAGCTGATGTGGCATCGGAGTCACCTAGTGCAG	12400 fluorescence intensity (a.u.)
TTCCCCTTACTCTATCTCTCCCACTCCTGACCAATGTGGCCGGAGTCACCTAGTGCAG	3570 fluorescence intensity (a.u.)
AACCCGAAAAGCTGCCGTCGCCTCGTCTCGTCGCCCCGAACGGAGTCACCTAGTGCAG	3340 fluorescence intensity (a.u.)
AGAGATCACCCTTGTCACCGTCAACATGCCTGTGTTCTGCCGGAGTCACCTAGTGCAG	5590 fluorescence intensity (a.u.)

Sequence	binding signal
GCTCCGCGTCGATCGAGGAGTAGTACACCGTGGTCTTGATCGGAGTCACCTAGTGCAG	3870 fluorescence intensity (a.u.)
GATATCACAACCTGACCCACATTAGTCACACGCACTCACACGGAGTCACCTAGTGCAG	3790 fluorescence intensity (a.u.)
CTTGGTCGTTTTACTTGCAAGTGACTCAACGAATGCATCGCGGAGTCACCTAGTGCAG	5050 fluorescence intensity (a.u.)
GACGAGGCCAGGGACGACATCGAGGACCTCGGCTGGCGCGCGGAGTCACCTAGTGCAG	4310 fluorescence intensity (a.u.)
TGCGACGTAAGCGCCACGTCAATCCCACATAAGACGAAGACGGAGTCACCTAGTGCAG	8000 fluorescence intensity (a.u.)
CATTTTGATTTGTTGCCACGTTCAACCCGATAACATGTATCGGAGTCACCTAGTGCAG	3180 fluorescence intensity (a.u.)
CTGCAATAATTGGGCATATCTTGGCGCACGCATCAGCAATCGGAGTCACCTAGTGCAG	3980 fluorescence intensity (a.u.)
GACACCAATACGCCCATACGGATACGTACACGTACGGCCTCGGAGTCACCTAGTGCAG	5070 fluorescence intensity (a.u.)
CTTGACTAGGGACTCATACGTAATCATGGTTACAAGGATTCGGAGTCACCTAGTGCAG	3160 fluorescence intensity (a.u.)
TACTACGGTGGGTGGCAGAACTGTGTAATTTGGACTGGGTCGGAGTCACCTAGTGCAG	3170 fluorescence intensity (a.u.)
ACATGGAGCATGTCAGCATGTGAATCAGCAAACATATATGCGGAGTCACCTAGTGCAG	8960 fluorescence intensity (a.u.)
GTGGGCGGCGATGGGCGGTCAGCAGTGCCACCGTCATCCCCGGAGTCACCTAGTGCAG	5050 fluorescence intensity (a.u.)
TCATCCCTCGGCCGGAAAACCGGGTATGACGGGTCCTCGACGGAGTCACCTAGTGCAG	4290 fluorescence intensity (a.u.)
TTAGATAATGTTTACTGTAGCATCACATAGGCTAATCATGCGGAGTCACCTAGTGCAG	3440 fluorescence intensity (a.u.)
AGGTCAGAAGTGTACTCGGTTGGTGCAATATGCCGTTCCTCGGAGTCACCTAGTGCAG	10500 fluorescence intensity (a.u.)
AATACTTGGCTTGTTGTCATTATGTATGTACGTACATTGCCGGAGTCACCTAGTGCAG	3550 fluorescence intensity (a.u.)
TCAGAGTCAACAGCTGACCAACAATGCGGGACCCTTGCTCCGGAGTCACCTAGTGCAG	3240 fluorescence intensity (a.u.)
CCGCTGCCGCGGCTTCTAGGTTTTCCATTCCCCATCCGCTCGGAGTCACCTAGTGCAG	25300 fluorescence intensity (a.u.)
AGCTTACTGGTCGCTGGATTGTTTGATTTGCAAGAGCAAGCGGAGTCACCTAGTGCAG	14000 fluorescence intensity (a.u.)
AGGTTCGCAGTTCCACGCATCCCACCATCACCACACCACGCGGAGTCACCTAGTGCAG	5160 fluorescence intensity (a.u.)
CCAATTTCCGACTTCATGAGATTTATGTCTTTGTGGTCAGCGGAGTCACCTAGTGCAG	3210 fluorescence intensity (a.u.)

At a glance, some entries already given.
Sequence	binding signal
CCAGACCCTTCCAGAACTCCCATCCGATCTCAATCCAACGCGGAGTCACCTAGTGCAG	3240 fluorescence intensity (a.u.)
TGGCGCCGTTCCCCTGCCACCGTGGTAGCTGATGTGGCATCGGAGTCACCTAGTGCAG	12400 fluorescence intensity (a.u.)
TTCCCCTTACTCTATCTCTCCCACTCCTGACCAATGTGGCCGGAGTCACCTAGTGCAG	3570 fluorescence intensity (a.u.)
AACCCGAAAAGCTGCCGTCGCCTCGTCTCGTCGCCCCGAACGGAGTCACCTAGTGCAG	3340 fluorescence intensity (a.u.)
AGAGATCACCCTTGTCACCGTCAACATGCCTGTGTTCTGCCGGAGTCACCTAGTGCAG	5590 fluorescence intensity (a.u.)

Additional entries follow:

Sequence	binding signal
AGCGGCATCAGCGCACGCGTCAGTCGTAGCCTCACTGCGACGGAGTCACCTAGTGCAG	3450 fluorescence intensity (a.u.)
CACGGCGATCACGACCAAGGCCGACGTGTTCAGCTACGGGCGGAGTCACCTAGTGCAG	5820 fluorescence intensity (a.u.)
GGTGCTAGCAATGGGCTGACTAGGTACGATCTATCATGTACGGAGTCACCTAGTGCAG	3240 fluorescence intensity (a.u.)
GTTTCGTTTCGTGGAAGAGTTCGATTCCAGCTAATATAATCGGAGTCACCTAGTGCAG	3690 fluorescence intensity (a.u.)
GTCATTTTGCCTGTTGACTCAGACATAGGATTGCTTGACGCGGAGTCACCTAGTGCAG	10000 fluorescence intensity (a.u.)
TCCCGCCACGCAGAGGAGTCAGGGCGTCGACGCGGTCGATCGGAGTCACCTAGTGCAG	3320 fluorescence intensity (a.u.)
TAGTAGTCAGAAACCCGATGTACGTCGTCCCATGCTACTGCGGAGTCACCTAGTGCAG	3750 fluorescence intensity (a.u.)
TTCCCAAACCACCGGACCGGGGTTACCACACGGTAACCGTCGGAGTCACCTAGTGCAG	30700 fluorescence intensity (a.u.)
AACATAGTATATGATACAATCATCTCTATGATTGCCTCTACGGAGTCACCTAGTGCAG	3950 fluorescence intensity (a.u.)
ACCTATCGAAAGTTTGCTCATCAGTACGTCATTCTCGATCCGGAGTCACCTAGTGCAG	3380 fluorescence intensity (a.u.)
CTCCGATGAAATATTCGAAAGCGAAGCCACGTGGTTTGACCGGAGTCACCTAGTGCAG	7790 fluorescence intensity (a.u.)
CTGCCGCTATAAATACTCATCTCATCTCATCATCCACCATCGGAGTCACCTAGTGCAG	4330 fluorescence intensity (a.u.)
GGCAAATGATGACTCGTTTCAGATTCTTCACAAATAAATCCGGAGTCACCTAGTGCAG	3790 fluorescence intensity (a.u.)
TTATTGCAAAATAGAAGGATGACGCCACGACGGCCGCTGCCGGAGTCACCTAGTGCAG	3330 fluorescence intensity (a.u.)
AAGGGTTCAAAACTGGGTCAGGGCTGAGTGAAATGCATAACGGAGTCACCTAGTGCAG	17500 fluorescence intensity (a.u.)
CAACAGCCGCGAGGCGAGACGACGATGACGCCGCCTATGGCGGAGTCACCTAGTGCAG	4840 fluorescence intensity (a.u.)
TCGACCGCGTCATCTCGTCCAAGCCCTCCATATGCTTCCACGGAGTCACCTAGTGCAG	5850 fluorescence intensity (a.u.)
AAACTTTACTCCTCTAGATCTAAACTTTACACGCCAGTTGCGGAGTCACCTAGTGCAG	3760 fluorescence intensity (a.u.)
CCCGTAACACGAGTCCACCTCCCGTTCCCGCCACCACCATCGGAGTCACCTAGTGCAG	3520 fluorescence intensity (a.u.)
CACCGCTTCTCTCCTCTCCCACTCCTCTCCTTCTCCTTCTCGGAGTCACCTAGTGCAG	8140 fluorescence intensity (a.u.)
TGTTCGGCAGCAAGGACAGGTGGGCTTGACACAGGCATATCGGAGTCACCTAGTGCAG	3350 fluorescence intensity (a.u.)

Sequence	binding signal
TACAATAGAGTATGTGGTGGGGACACGTGGCAGTGTGGGTCGGAGTCACCTAGTGCAG	33000 fluorescence intensity (a.u.)
AGGCCCACATGCCTCTCGCCTTATAAGTAGCCGAGGCAGTCGGAGTCACCTAGTGCAG	32600 fluorescence intensity (a.u.)
GCGTCGCCACTGCCGCCGCTTTCTCCACCGCCGTCGCCACCGGAGTCACCTAGTGCAG	12200 fluorescence intensity (a.u.)
CACCGCGCCGTGGGCTGCGTGGCGTGGCTCGCCGCGGGGTCGGAGTCACCTAGTGCAG	5400 fluorescence intensity (a.u.)
ACACTTATCGACGTGCCAGCGCGACGCAATATGCTCCGATCGGAGTCACCTAGTGCAG	5400 fluorescence intensity (a.u.)
ATCTATCAATTTTATTGAAGATGTGACGTGTGAGTGTGGACGGAGTCACCTAGTGCAG	11400 fluorescence intensity (a.u.)
ATGCTGTGATCCAACTTGTTGTACAGAACCTCATGCATTACGGAGTCACCTAGTGCAG	3740 fluorescence intensity (a.u.)
ATGTGATTAAATGGAGGGTTTTCGGGGAGGGTTTTCGGGGCGGAGTCACCTAGTGCAG	4170 fluorescence intensity (a.u.)
CTATCCCTCAAGTGTTTGGGATGCTGTCAAGTTTGGTTGACGGAGTCACCTAGTGCAG	3300 fluorescence intensity (a.u.)
CGCTCGTCGCCACATCGCTTGCTTCCCCGTCACTCCCACTCGGAGTCACCTAGTGCAG	3480 fluorescence intensity (a.u.)
CGCCGACCTCAGCTGCTGCGTCATCCCACCGACGTCAGCACGGAGTCACCTAGTGCAG	16800 fluorescence intensity (a.u.)
AGGTTTCGGGAACCGTCGGATCAGATTTCCATGGTCCAGACGGAGTCACCTAGTGCAG	19800 fluorescence intensity (a.u.)
TCCTAGCCTAGCTTCCATCGACTTGGCCCCACCTGGCAGCCGGAGTCACCTAGTGCAG	9240 fluorescence intensity (a.u.)
ATTAAGTATCCTAGGAGATAAATACCATGTCACATTGTCACGGAGTCACCTAGTGCAG	8690 fluorescence intensity (a.u.)
CCCTACGTGCACACATCCAGCTCCATTATATAGCCATTTTCGGAGTCACCTAGTGCAG	54800 fluorescence intensity (a.u.)
CGTGTGACTGTGTTTGTGACGCGGTGGCTGGTGAAGGCCGCGGAGTCACCTAGTGCAG	3750 fluorescence intensity (a.u.)
CAACGTGGACAGCACACGCGTACGTGTGGGCCCGGTCGGCCGGAGTCACCTAGTGCAG	7040 fluorescence intensity (a.u.)
GCGGGATCACAAACGTGGTTTCCCATCCCTGTCTTAATGTCGGAGTCACCTAGTGCAG	3680 fluorescence intensity (a.u.)
AGTTCTACAAGCCTACAATTTTGACATGCTGTACAAGAGGCGGAGTCACCTAGTGCAG	3370 fluorescence intensity (a.u.)
TCCCGGCCATCTTCTTCTCAAAGTCTCTAACTCTAATAAGCGGAGTCACCTAGTGCAG	31700 fluorescence intensity (a.u.)
CTTACTAAATTGCAATATGCACTGGCGGCGTCGTCAGCACCGGAGTCACCTAGTGCAG	5720 fluorescence intensity (a.u.)
